Results on one molecule are retold here after PMC6478765.

Chains of the proteins cited; added tags and fusions are not shown.
UniProt P21796: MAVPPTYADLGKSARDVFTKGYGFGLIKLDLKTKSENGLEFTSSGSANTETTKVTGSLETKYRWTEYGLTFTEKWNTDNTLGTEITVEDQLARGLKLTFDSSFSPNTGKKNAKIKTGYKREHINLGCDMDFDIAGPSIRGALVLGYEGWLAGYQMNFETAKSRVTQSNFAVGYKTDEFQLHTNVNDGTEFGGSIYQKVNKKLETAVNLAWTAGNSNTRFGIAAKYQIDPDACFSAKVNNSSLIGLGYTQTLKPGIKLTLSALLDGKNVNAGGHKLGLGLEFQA

The assay addresses voltage dependent anion channel 1 (VDAC1) (human (endogenous in MCF7)) (UniProt P21796). The experiment in a line: co-IP; MCF7 lysates; IP by VDAC1 antibody, immunoblot for HKDC1 and VDAC1; stable cell lines: empty control (CTL), overexpression of PGC1β or HKDC1, knockdown of PGC1β or HKDC1 by lentivirus.

No constants are given. Whether binding was seen depends on the method and setting. In cells and extracts the contact can be indirect. Some binding calls cover weakened binding; strength is not graded here.

B1: Hexokinase domain component 1 (HKDC1) (protein, UniProt Q2TB90-1 1-917)
chain: MFAVHLMAFYFSKLKEDQIKKVDRFLYHMRLSDDTLLDIMRRFRAEMEKGLAKDTNPTAAVKMLPTFVRAIPDGSENGEFLSLDLGGSKFRVLKVQVAEEGKRHVQMESQFYPTPNEIIRGNGTELFEYVADCLADFMKTKDLKHKKLPLGLTFSFPCRQTKLEEGVLLSWTKKFKARGVQDTDVVSRLTKAMRRHKDMDVDILALVNDTVGTMMTCAYDDPYCEVGVIIGTGTNACYMEDMSNIDLVEGDEGRMCINTEWGAFGDDGALEDIRTEFDRELDLGSLNPGKQLFEKMISGLYLGELVRLILLKMAKAGLLFGGEKSSALHTKGKIETRHVAAMEKYKEGLANTREILVDLGLEPSEADCIAVQHVCTIVSFRSANLCAAALAAILTRLRENKKVERLRTTVGMDGTLYKIHPQYPKRLHKVVRKLVPSCDVRFLLSESGSTKGAAMVTAVASRVQAQRKQIDRVLALFQLTREQLVDVQAKMRAELEYGLKKKSHGLATVRMLPTYVCGLPDGTEKGKFLALDLGGTNFRVLLVKIRSGRRSVRMYNKIFAIPLEIMQGTGEELFDHIVQCIADFLDYMGLKGASLPLGFTFSFPCRQMSIDKGTLIGWTKGFKATDCEGEDVVDMLREAIKRRNEFDLDIVAVVNDTVGTMMTCGYEDPNCEIGLIAGTGSNMCYMEDMRNIEMVEGGEGKMCINTEWGGFGDNGCIDDIWTRYDTEVDEGSLNPGKQRYEKMTSGMYLGEIVRQILIDLTKQGLLFRGQISERLRTRGIFETKFLSQIESDRLALLQVRRILQQLGLDSTCEDSIVVKEVCGAVSRRAAQLCGAGLAAIVEKRREDQGLEHLRITVGVDGTLYKLHPHFSRILQETVKELAPRCDVTFMLSEDGSGKGAALITAVAKRLQQAQKEN
In the case of B1, the binding result is given as “binds”.
